These are yes or no findings as the source states them, for the method shown. In cells and extracts the contact can be indirect. These calls come from enrichment with a bait or labelling near it, and not all partners need be listed.
Molecular target: SidBait-p38β (UniProt Q15759)
Test: proximity labelling; only the target purified

Chains of the proteins cited; added tags and fusions are not shown.
UniProt Q15759: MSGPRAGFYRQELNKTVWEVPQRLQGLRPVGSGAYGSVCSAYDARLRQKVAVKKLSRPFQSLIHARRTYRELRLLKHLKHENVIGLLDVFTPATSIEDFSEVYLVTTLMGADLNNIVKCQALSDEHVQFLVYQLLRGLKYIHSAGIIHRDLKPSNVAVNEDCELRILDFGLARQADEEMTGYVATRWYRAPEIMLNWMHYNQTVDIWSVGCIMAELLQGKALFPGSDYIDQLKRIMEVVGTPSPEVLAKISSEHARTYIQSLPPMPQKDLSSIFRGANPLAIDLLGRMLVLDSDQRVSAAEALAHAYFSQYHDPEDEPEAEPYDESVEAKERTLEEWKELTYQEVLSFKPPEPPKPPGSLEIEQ

B1: MAP2K4 (protein, UniProt P45985 1-399)
chain: MAAPSPSGGGGSGGGSGSGTPGPVGSPAPGHPAVSSMQGKRKALKLNFANPPFKSTARFTLNPNPTGVQNPHIERLRTHSIESSGKLKISPEQHWDFTAEDLKDLGEIGRGAYGSVNKMVHKPSGQIMAVKRIRSTVDEKEQKQLLMDLDVVMRSSDCPYIVQFYGALFREGDCWICMELMSTSFDKFYKYVYSVLDDVIPEEILGKITLATVKALNHLKENLKIIHRDIKPSNILLDRSGNIKLCDFGISGQLVDSIAKTRDAGCRPYMAPERIDPSASRQGYDVRSDVWSLGITLYELATGRFPYPKWNSVFDQLTQVVKGDPPQLSNSEEREFSPSFINFVNLCLTKDESKRPKYKELLKHPFILMYEERAVEVACYVCKILDQMPATPSSPMYVD
In the case of B1, the binding is reported as “binds”.

Source: article doi:10.1101/2025.03.20.644192
